B1: Tri-46 (trispecific antibody, V domains shown)
VHH: EVQLVESGGGLVQPGGSLRLSCAASESISSIHIMAWYRQAPGKQRELVAGIRNDGSTVYVDSVKGRFTISRDNAKNSLYLQMNSLRAEDTAVYYCNADQGFGSYSEWERRSRWGQGTTVTVSS
VH 1: EVQLVQSGAEVKKPGSSVKVSCKASGYTFTSYGISWVRQAPGQGLEWMGEIYPRSGNTYYNEKFKGRVTLTADKSTSTAYMELSSLRSEDTAVYYCARGRAYGRNYPMDYWGQGTTVTVSS
VL 1: EIVLTQSPATLSLSPGERATLSCRASQSIGTSIHWYQQKPGQSPRLLIKYASESISGIPARFSGSGSGTDFTLTISSLEPEDFAVYYCQQSNSWPYTFGGGTKVEIK
VH 2: EVQLVESGGGVVQPGRSLRLSCAASGFTFTDYYMSWVRQAPGKGLEWVAMSRNKAKGHTIEYSSSVKGRFTISRDNSKNTLYLQMNSLRAEDTAVYYCARDTYESYDGYFDVWGQGTTVTVSS
VL 2: DIVMTQSPDSLAVSLGERATINCKSSQSLFNSRSRKNYLAWYQQKPGQTPKLLIYWASIRESGVPDRFSGSGSGTDFTLTISSLQAEDVAVYYCKQSYYLYTFGQGTKLEIK
B2: Tri-65 (trispecific antibody, V domains shown)
VHH: B1 VHH
VH 1: EVQLVQSGAEVKKPGASVKVSCKTSGYIFTNFGITWVRQAPGQRLEWMGENYPRRINTYYNEKFKGRVTITADKSASTAYMELSSLRSEDTAVYYCSRKDIFGLSYALDYWGQGTTVTVSS
VL 1: DIQMTQSPSSLSASVGDRVTITCKASQNVGTNVAWYQHKPGKSPKALIYSASYQYSGVPSRFSGSGSGTDFTLTISSLQPEDVATYICQQYKNYPYTFGGGTKVEIK
VH 2: B1 VH 2
VL 2: B1 VL 2
B3: Tri-63 (trispecific antibody, V domains shown)
VHH: B1 VHH
VH 1: B1 VH 1
VL 1: B1 VL 1
VH 2: B1 VH 2
VL 2: B1 VL 2
B4: Tri-56 (trispecific antibody, V domains shown)
VHH: B1 VHH
VH 1: B1 VH 1
VL 1: B1 VL 1
VH 2: B1 VH 2
VL 2: B1 VL 2
B5: Tri-49 (trispecific antibody, V domains shown)
VHH: B1 VHH
VH 1: B1 VH 1
VL 1: B1 VL 1
VH 2: B1 VH 2
VL 2: B1 VL 2
B6: Tri-55 (trispecific antibody, V domains shown)
VHH: B1 VHH
VH 1: B1 VH 1
VL 1: B1 VL 1
VH 2: B1 VH 2
VL 2: B1 VL 2
B7: Tri-59 (trispecific antibody, V domains shown)
VHH: B1 VHH
VH 1: B1 VH 1
VL 1: B1 VL 1
VH 2: B1 VH 2
VL 2: B1 VL 2
B8: Tri-66 (trispecific antibody, V domains shown)
VHH: B1 VHH
VH 1: B2 VH 1
VL 1: B2 VL 1
VH 2: B1 VH 2
VL 2: B1 VL 2
B9: Tri-64 (trispecific antibody, V domains shown)
VHH: B1 VHH
VH 1: B1 VH 1
VL 1: B1 VL 1
VH 2: B1 VH 2
VL 2: B1 VL 2
B10: Tri-52 (trispecific antibody, V domains shown)
VHH: B1 VHH
VH 1: B1 VH 1
VL 1: B1 VL 1
VH 2: B1 VH 2
VL 2: B1 VL 2

Results are given in words; binding and its absence hold for the method and conditions named. A result given as binding can be weak or reduced; the word gives no strength.

The target of the assay is monkey CD3 on activated monkey PBMC (monkey). Briefly: FACS, activated monkey PBMC.
On to B1, for which the binding entry is reported as “binds”.
In the case of B2 it was “binds”.
Regarding B3, the binding result is on record as “binds”.
In the case of B4 it was “binds”.
For B5, the binding entry is on record as “binds”.
With B6, the binding entry is recorded as “binds”.
With B7, the binding entry was “binds”.
For the molecule B8, the binding result is on record as “binds”.
In the case of B9 it was “binds”; in that of B10, “binds”.

The values above are taken from patent EP4538294A1.
